# Results of single-concentration screens

Data taken from ChEMBL document CHEMBL3988442, “University of Dundee, Small-Polar-MMV Screening Library” (2021).

Mtb glucose medium: 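Growth of Mycobacterium tuberculosis over 3 days (7H9 medium with glucose and tyloxapol); the read-out is not stated. Compounds at 50 µM. Higher reads as more growth inhibition (inferred: compounds with an IC50 in retests scored well above the rest). About 69,000 compounds were tested under these conditions; 1.1% (about 760) showed 50% or more at least once.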
Mtb cholesterol medium: 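Phenotypic screen: M. tuberculosis growth, cholesterol and DPPC medium, 4 days; the read-out is not stated. Compounds at 50 µM. Higher reads as more growth inhibition (inferred: compounds with an IC50 in retests scored well above the rest). Size under these conditions: about 69,000 compounds, about 370 of them at 50% or above in at least one test.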

The filed quantity is “Percent Effect” (%). The record does not define 0% and 100%; most values in the screen are far below 50% and negative numbers occur (in some assays of this library far below -100). The compounds are a random part of those screened. Two or more numbers in one place are separate tests of the same structure; such repeats can differ widely.

* CCOc1ccc(NC(=O)N2CCOC(C(N)=O)C2)cc1Cl (stereo not given) : Mtb glucose medium: 2.03%; Mtb cholesterol medium: -0.2849%
* CCN(c1ccsc1C(=O)N1CCSCC1)S(=O)(=O)c1ccccc1 : Mtb glucose medium: -21.29%; Mtb cholesterol medium: -14.37%
* Cc1ccc(OCCN2CCN(Cc3cnn(CCO)c3)CC2)cc1 : Mtb glucose medium: 0.6862%; Mtb cholesterol medium: 15.26%
* CCOC1COC2(CCN(c3ccccn3)CC2)C1.O=C(O)C(F)(F)F (stereo not given) : Mtb glucose medium: 18.29%; Mtb cholesterol medium: 13.28%
* O=C(O)C(F)(F)F.O=C(O)C(F)(F)F.O=C(O)c1c(-c2ccncc2)ncc2c1CCN(CC1CCOC1)C2 (stereo not given) : Mtb glucose medium: -2.59%; Mtb cholesterol medium: -4.41%
* Cc1nn(C)c(C)c1NC(=O)c1cccc(CN2CC[C@H](O)C2)c1 : Mtb glucose medium: -1.347%; Mtb cholesterol medium: -4.507%
* CCn1cnnc1CN(C)c1nccc(C2CCCC2)n1 : Mtb glucose medium: 23.73% and 8.519%; Mtb cholesterol medium: -5.012%
* CC(=O)N1CC2(CCN(Cc3ccc(Cl)cc3)CC2)Cc2ccccc21 : Mtb glucose medium: -7.833%; Mtb cholesterol medium: -18.56%
* Cc1cnn(CCCNC(=O)NC(C)C(=O)Nc2ccccc2)c1 (stereo not given) : Mtb glucose medium: -8.654%; Mtb cholesterol medium: -15.98%
* COc1ccc(CNC(=O)NCc2c(C)cc(C)[nH]c2=O)cc1 : Mtb glucose medium: -13.33%; Mtb cholesterol medium: -7.677%
* COCc1noc(CCNc2ncnc3c2CCNCC3)n1 : Mtb glucose medium: 14.41%; Mtb cholesterol medium: 8.717%
* O=S(=O)(c1ccccc1Br)N1CCC2(CC1)OCCS2 : Mtb glucose medium: 16.76% and 13.37%; Mtb cholesterol medium: -6.837%
* CN(C)C(=O)Cn1c2c(ccc1=O)CCN(Cc1cnn(C)c1)CC2.O=C(O)C(F)(F)F : Mtb glucose medium: -9.158%; Mtb cholesterol medium: -8.875%
* Fc1ccc(N2CCCN(c3ccc(Cn4ccnc4)cn3)CC2)cc1 : Mtb glucose medium: 68.18%; Mtb cholesterol medium: 63.92%
* O[C@@H]1C[C@@H](c2nc(-c3ccccc3)no2)N(CC2CCCCC2)C1 : Mtb glucose medium: -7.539% and 15.99%; Mtb cholesterol medium: 5.17%
* Cc1nccn1C1CCCN(C(=O)COC2CCCC2)C1 (stereo not given) : Mtb glucose medium: -1.189%; Mtb cholesterol medium: 0.5728%
* Cc1ccc(C(=O)N2CCC3(CC2)CCN(Cc2ccccn2)C3=O)o1.O=C(O)C(F)(F)F : Mtb glucose medium: -19.16%; Mtb cholesterol medium: -22.05%
* O=C(CNCc1ccccc1Cn1cccn1)Nc1cnccn1 : Mtb glucose medium: -5.161% and -10.59%; Mtb cholesterol medium: -13.47%
* O=C1CCN(C(=O)CCc2ccc(Cl)cc2Cl)CCN1 : Mtb glucose medium: -8.068%; Mtb cholesterol medium: 2.356% and -14.14%
* CNc1ncc(CN(C)C(=O)CCc2cc3n(n2)CCCNC3)cn1 : Mtb glucose medium: 11.83%; Mtb cholesterol medium: 19.93%
* COCC(=O)N[C@H](C)c1onc(-c2ccc(Cl)cc2)c1C(=O)O : Mtb glucose medium: -8.29% and 6.471%; Mtb cholesterol medium: -23.1%
* CNc1cc(C)nc(C2CN(Cc3cc[nH]n3)CCO2)c1 (stereo not given) : Mtb glucose medium: -11.86%; Mtb cholesterol medium: -14.75%
* CC(C)(CN)NS(=O)(=O)c1c(F)cccc1F.Cl : Mtb glucose medium: 1.6% and 9.391%; Mtb cholesterol medium: 7.801%
* [H][C@@]12CN(Cc3ccoc3)CCO[C@]1([H])CN(C(=O)CS(C)(=O)=O)C2 : Mtb glucose medium: -12.52%; Mtb cholesterol medium: -8.88% and -19.47%
* COc1ncccc1CNC(=O)N1CCC(CNC(C)=O)CC1 : Mtb glucose medium: -23.53%; Mtb cholesterol medium: -12.74%
* CC(C)NC(=O)c1ccc2c(c1)nc1n2CCN(Cc2ccco2)C1 : Mtb glucose medium: 13.63%; Mtb cholesterol medium: 7.709%
* COc1ccccc1OC1CN(Cc2ccc(C(=O)O)cc2)C1 : Mtb glucose medium: 28.45% and -8.337%; Mtb cholesterol medium: 0.2689%
* O=C(O)C(F)(F)F.[H][C@@]12CCN(Cc3scnc3C)C[C@]1(C(=O)N1CCOCC1)CCO2 : Mtb glucose medium: -3.543% and -9.957%; Mtb cholesterol medium: -10.9% and -47.8%
* CC(=O)NCC(=O)N1CC[C@H](OCC2CC2)[C@@H]1Cc1cccnc1.O=C(O)C(F)(F)F : Mtb glucose medium: 1.144%; Mtb cholesterol medium: 7.658%
* Cc1cnn(CCNCc2ccccc2OCc2cccnc2)c1 : Mtb glucose medium: -17.78%; Mtb cholesterol medium: -4.228%
* [H][C@@]12CN(c3ccc(C)nn3)C[C@H](C(=O)N3CCOCC3)[C@]1([H])CCO2 : Mtb glucose medium: 7.094%; Mtb cholesterol medium: -22%
* Cc1ccc(CNC(=O)N2CCOCC2C2CC2)cc1F (stereo not given) : Mtb glucose medium: 5.21%; Mtb cholesterol medium: -10.47% and -3.002%
* COCc1cncc2c1CCN(C(=O)c1ccsc1)C2 : Mtb glucose medium: -20.16% and -2.34%; Mtb cholesterol medium: -26.04%
* O=C(O)C(F)(F)F.O=C(O)C(F)(F)F.[H][C@@]12COC[C@]1([H])[C@@H](OCCN(C)C)CN2Cc1ccoc1 : Mtb glucose medium: -57.6% and -9.351%; Mtb cholesterol medium: -24.79%
* CC(C)c1nc(CN(C)C2CCCN(c3cccnn3)C2)no1 (stereo not given) : Mtb glucose medium: 16.2%; Mtb cholesterol medium: 1.736%
* [H][C@]12CC(COCc3ccccn3)C[C@]1([H])N(C(=O)c1ccc[nH]1)CCO2 (stereo not given in full) : Mtb glucose medium: -11.37% and -0.232%; Mtb cholesterol medium: 7.145%
* Cn1nccc1C(=O)NCCN1CCC(O)(c2ccc(F)cc2)CC1 : Mtb glucose medium: -19.15%; Mtb cholesterol medium: -14.05% and 2.251%
* Cc1nc(C(C)C)sc1C(=O)N1CCN(C2CCSCC2)CC1 : Mtb glucose medium: -17.31%; Mtb cholesterol medium: -24.06%
* CN1CCN(C(=O)c2ccc(=O)n(C)c2)Cc2ccccc21 : Mtb glucose medium: 15.99%; Mtb cholesterol medium: 4.782%
* CCC(=O)N1CCC2(CC1)CC(N1CCOCC1)c1cc(C)ccc12.O=C(O)C(F)(F)F (stereo not given) : Mtb glucose medium: 11.94%; Mtb cholesterol medium: 3.611%

Some entries from above, unchanged:

structure	Mtb glucose medium	Mtb cholesterol medium
O=C(O)C(F)(F)F.[H][C@@]12CCN(Cc3scnc3C)C[C@]1(C(=O)N1CCOCC1)CCO2	-3.543% and -9.957%	-10.9% and -47.8%
CN1CCN(C(=O)c2ccc(=O)n(C)c2)Cc2ccccc21	15.99%	4.782%
Cc1ccc(CNC(=O)N2CCOCC2C2CC2)cc1F (stereo not given)	5.21%	-10.47% and -3.002%